# From publication PMC7819943, “Rice protein-binding microarrays: a tool to detect cis-acting elements near promoter regions in rice”
# This is one part of the list.
# Molecular target: T1, OsSMF1 (Oryza sativa, UniProt Q6ZLB0 1-436)
# T1 sequence: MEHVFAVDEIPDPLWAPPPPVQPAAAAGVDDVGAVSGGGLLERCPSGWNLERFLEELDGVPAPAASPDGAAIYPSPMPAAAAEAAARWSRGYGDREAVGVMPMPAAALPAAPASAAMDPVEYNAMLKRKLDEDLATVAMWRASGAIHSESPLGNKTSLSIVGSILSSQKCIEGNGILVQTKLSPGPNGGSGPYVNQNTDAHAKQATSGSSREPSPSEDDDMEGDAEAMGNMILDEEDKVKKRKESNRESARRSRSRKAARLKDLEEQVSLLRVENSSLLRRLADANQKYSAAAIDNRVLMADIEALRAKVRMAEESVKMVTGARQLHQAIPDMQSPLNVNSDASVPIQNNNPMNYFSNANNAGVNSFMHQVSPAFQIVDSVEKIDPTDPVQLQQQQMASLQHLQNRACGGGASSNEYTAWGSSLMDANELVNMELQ
# Assay: protein-binding microarray (RPBM); PBS, 2% BSA, 51.3 ng/ul salmon testes DNA, 50 uM zinc acetate, 200 nM TF, 25 C, 1 h; high values mean tight binding
# Details: protein: recombinant; tags: N-terminal polyhistidine and DsRed monomer fusion (pET32a); chain copies: 2; label: CyDye5-dUTP incorporated in the synthesized complementary strand; 3' TTTTT single-stranded linker to array surface; dsDNA, one strand shown
# Summary of the method: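 Per-feature fluorescence intensity (arbitrary units), read on an Axon 4000B scanner, is the binding signal. Transcription factors carrying an N-terminal polyhistidine tag and DsRed fusion were expressed in E. coli BL21-CodonPlus and purified on Ni–NTA. A custom Agilent array, made double-stranded by primer extension with Cy5-dUTP and blocked with 2% BSA, was incubated with 200 nM protein in PBS, 2% BSA, salmon testes DNA and 50 µM zinc acetate at 25 °C for 1 h and then washed.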
row,Sequence,binding signal
1,CCACTGGACCCACATGTCATAGACACATGTGGACCCACATCGGAGTCACCTAGTGCAG,3740 fluorescence intensity (a.u.)
2,CGCCTGCGCCGAGCAGCCGCCGATCTCCGCCACGCGAGCACGGAGTCACCTAGTGCAG,5890 fluorescence intensity (a.u.)
3,CACTGTCATCCACTCGACCTGCCACGACACCCGCCACCGCCGGAGTCACCTAGTGCAG,8040 fluorescence intensity (a.u.)
4,CCCACCAGTTGTGGCCCACGTACGTGGCAATCCCTTCAGGCGGAGTCACCTAGTGCAG,6220 fluorescence intensity (a.u.)
5,CCACAGGTGCCTAGCTGGCAGCCGCGCGCCAACGCCGTAGCGGAGTCACCTAGTGCAG,4290 fluorescence intensity (a.u.)
6,CCGAAGGAGTACGTGCCAAGTCGGCCCATCAGGCCCACGTCGGAGTCACCTAGTGCAG,4010 fluorescence intensity (a.u.)
7,TTTTGTTCAGTTATTCTTCCTCGTGAGGTGATGTCCTTTTCGGAGTCACCTAGTGCAG,3480 fluorescence intensity (a.u.)
8,TTTAGGGTGTTTGGTTGTAGTCACAGTTGTGGCAAGATTCCGGAGTCACCTAGTGCAG,3580 fluorescence intensity (a.u.)
9,CACCGGGTGATCGGTCTGTCACTGCAACGTGGAGCCCATACGGAGTCACCTAGTGCAG,7270 fluorescence intensity (a.u.)
10,CGGATGAGACACTTCATAGTATAGTGAATTTGGACATGCTCGGAGTCACCTAGTGCAG,4180 fluorescence intensity (a.u.)
11,ATTATCATCGATCTTCTTGGGGAGGAAGCCTACCTTTGCCCGGAGTCACCTAGTGCAG,21000 fluorescence intensity (a.u.)
12,GGGGTGGCGATGGAGGTTGGCACCGTTGCCGTGGCAGACCCGGAGTCACCTAGTGCAG,4370 fluorescence intensity (a.u.)
13,ACACATAGAGATAGTATACGTGTATGTTTATAGGAGTAAACGGAGTCACCTAGTGCAG,3460 fluorescence intensity (a.u.)
14,TACGAGGAGGCCACGTGGCGAGTCACCTGGCCCAGCTGTCCGGAGTCACCTAGTGCAG,21400 fluorescence intensity (a.u.)
15,CTACTGCCAAGATGACGACAACTAATTATTATCCTCGCAACGGAGTCACCTAGTGCAG,4480 fluorescence intensity (a.u.)
16,TGACTTGGGGTGGTGCTTAGTATGTCATGATATACCAGCACGGAGTCACCTAGTGCAG,3970 fluorescence intensity (a.u.)
17,TGCTACAGAGCTTAGGGATGCTGACGGTCTCATCCACGCTCGGAGTCACCTAGTGCAG,29700 fluorescence intensity (a.u.)
18,AGAACGGCTTGGATGGGTGGTAGCTGAGCTGTAGTCAGACCGGAGTCACCTAGTGCAG,3430 fluorescence intensity (a.u.)
19,CCTTAGCGTTCACACCTGTTCCTTTCCCGCGCTTCGGATTCGGAGTCACCTAGTGCAG,3140 fluorescence intensity (a.u.)
20,GTTATTATGCAAACTATGTGGTTTAGACTGTAGAGATTGCCGGAGTCACCTAGTGCAG,19100 fluorescence intensity (a.u.)
21,GTATCCACTCCAGCAACTCCCATAGCCTGGACACGTCAGTCGGAGTCACCTAGTGCAG,11500 fluorescence intensity (a.u.)

# An excerpt of these results, with bars between the fields:
row | Sequence | binding signal
6 | CCGAAGGAGTACGTGCCAAGTCGGCCCATCAGGCCCACGTCGGAGTCACCTAGTGCAG | 4010 fluorescence intensity (a.u.)
12 | GGGGTGGCGATGGAGGTTGGCACCGTTGCCGTGGCAGACCCGGAGTCACCTAGTGCAG | 4370 fluorescence intensity (a.u.)

# (list continues)

row,Sequence,binding signal
1,GTTCGTCATGAAATAATAATGAAAAGACACTTTGTTCACACGGAGTCACCTAGTGCAG,18100 fluorescence intensity (a.u.)
2,GTGCATCGTGTGTGTGTTTGTTGTTAACGCGTCCGTCGCACGGAGTCACCTAGTGCAG,4310 fluorescence intensity (a.u.)
3,AGCTAGCTATAATAAATCCGCACGTGCTTGTCTTCTCCTCCGGAGTCACCTAGTGCAG,3230 fluorescence intensity (a.u.)
4,GACAGCGAGGTCACCATTTGTCGTGGCTGGGGAGGGACAACGGAGTCACCTAGTGCAG,3810 fluorescence intensity (a.u.)
5,GCGCGAGGCTACCCCGACCCCGACGTGGTCTCCTCCCACCCGGAGTCACCTAGTGCAG,3690 fluorescence intensity (a.u.)
6,ACCGTCCCCGCCATCCGCTATTGCCACGCCGGCACCGTTCCGGAGTCACCTAGTGCAG,8420 fluorescence intensity (a.u.)
7,ATATAAATCATGAATAAGTTGTTGAGTTTGAAAATGTAAACGGAGTCACCTAGTGCAG,7110 fluorescence intensity (a.u.)
8,GGCTGGCCAGCGCGGTTGCTGACGACTGGAGGAGCCTCGCCGGAGTCACCTAGTGCAG,4880 fluorescence intensity (a.u.)
9,GGATTAATTGTTAGTACACGCTTGTGTGGCTTTGACGCATCGGAGTCACCTAGTGCAG,4700 fluorescence intensity (a.u.)
10,TCGCGCTGTACACCGGGCCGACGATAAGCCCACTGATCCACGGAGTCACCTAGTGCAG,4790 fluorescence intensity (a.u.)
11,ATTACTCATAGTCACTATAAATCGATAGGTATTATCCATGCGGAGTCACCTAGTGCAG,3470 fluorescence intensity (a.u.)
12,CGCGACGACGACTAGTTTATTTTGCACCACGTACGCACACCGGAGTCACCTAGTGCAG,5160 fluorescence intensity (a.u.)
13,CCCACCACCCGCCCCGCTCGCCGACGCGGCGGCCATGGCGCGGAGTCACCTAGTGCAG,4000 fluorescence intensity (a.u.)
14,GTTGATTTGGTTCCACGCATCGCACGCAGCGTCCCGAGAGCGGAGTCACCTAGTGCAG,3590 fluorescence intensity (a.u.)
15,TCTCTCCATTTGACACGTACACGAATACCCCATCGTGCATCGGAGTCACCTAGTGCAG,23200 fluorescence intensity (a.u.)
16,TGATGAAGGGGAAGAGATTATACACGTTGGTGGCTAGAGGCGGAGTCACCTAGTGCAG,3470 fluorescence intensity (a.u.)
17,CTACACGACGACTGACGGCGACGTCAGTTCAGTTTAGTTTCGGAGTCACCTAGTGCAG,3660 fluorescence intensity (a.u.)
18,GGGTGATTTGTTGCAACGGCGCGTGTGGTGGTGCGTGTGGCGGAGTCACCTAGTGCAG,3390 fluorescence intensity (a.u.)
19,GCACCATCCCCGGTGATGCCCCACCACGTCCTCGACTCCCCGGAGTCACCTAGTGCAG,5180 fluorescence intensity (a.u.)
20,ATCGTCTCACTGTCTCACCGATCGAGCTAGCTCTCGTCGGCGGAGTCACCTAGTGCAG,3720 fluorescence intensity (a.u.)
21,ACCGGCTCACTTATGCGCGCGCGGCGCTGAGGTGGCCGCACGGAGTCACCTAGTGCAG,5200 fluorescence intensity (a.u.)
